These are yes or no findings as the source states them, for the method shown. Binding seen in cells or lysates may run through a third protein. Some entries that bind do so weakly or less than the wild type.
Biological target: T1, TIP41 (full length TIP41 protein expressed from the pHA vector in HEK293T cells) (human) (UniProt O75663)
T1 sequence: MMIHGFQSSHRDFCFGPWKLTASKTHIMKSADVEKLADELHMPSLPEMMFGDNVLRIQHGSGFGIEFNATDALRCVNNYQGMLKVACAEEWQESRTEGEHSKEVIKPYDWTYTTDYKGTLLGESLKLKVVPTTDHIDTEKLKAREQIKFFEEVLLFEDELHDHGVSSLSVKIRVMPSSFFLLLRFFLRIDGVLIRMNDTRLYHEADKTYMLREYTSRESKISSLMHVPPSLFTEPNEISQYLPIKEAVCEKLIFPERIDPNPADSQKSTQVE
Test: GST pull-down from HEK293T lysate, Western blot

Sequences of proteins named here, by UniProt entry; tags and fusion partners are left off. A change or cut given only in a name is not applied to a line headed by its entry.
UniProt O14733: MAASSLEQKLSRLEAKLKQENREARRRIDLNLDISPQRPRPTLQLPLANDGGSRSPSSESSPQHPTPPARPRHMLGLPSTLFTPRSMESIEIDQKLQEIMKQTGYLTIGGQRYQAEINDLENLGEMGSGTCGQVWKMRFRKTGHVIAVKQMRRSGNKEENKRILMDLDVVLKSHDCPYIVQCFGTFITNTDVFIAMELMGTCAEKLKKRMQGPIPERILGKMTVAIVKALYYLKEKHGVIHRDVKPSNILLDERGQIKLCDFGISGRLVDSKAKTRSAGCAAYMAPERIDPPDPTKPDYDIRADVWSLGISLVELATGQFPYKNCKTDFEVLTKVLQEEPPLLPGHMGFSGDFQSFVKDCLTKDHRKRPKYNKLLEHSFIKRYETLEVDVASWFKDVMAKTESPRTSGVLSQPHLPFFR

“MKK7 (full length MKK7 expressed from the pGST vector in HEK293T cells) (from UniProt O14733 1-419) (enzyme)” was tested, and the binding was “binds”.

From patent publication US20120315284A1
